Paper PMC10534853
Results are given in words; binding and its absence hold for the method and conditions named. Binding seen in cells or lysates may run through a third protein. A result given as binding can be weak or reduced; the word gives no strength.

Legend:
[1] = biological target: p53 (Flag-p53) (not stated (cDNA from 'the cells'; the paper's cells, HEK-293T and HeLa, are human)) (UniProt P04637); test: co-IP
[2] = biological target: Brucella effector protein BspF (HA-BspF) (Brucella abortus) (UniProt Q2YLT8); test: co-IP

Row | Substance | binding [1] | binding [2]
1 | Brucella effector protein BspF (HA-BspF) (from UniProt Q2YLT8) | binds | –
2 | p53 (Flag-p53) (from UniProt P04637 1-393) | – | binds
